Laboratory results reported in publication PMC8120699.

Amino acid sequences for entries named in this document (tags omitted). Residues count along the entry.
UniProt P07737: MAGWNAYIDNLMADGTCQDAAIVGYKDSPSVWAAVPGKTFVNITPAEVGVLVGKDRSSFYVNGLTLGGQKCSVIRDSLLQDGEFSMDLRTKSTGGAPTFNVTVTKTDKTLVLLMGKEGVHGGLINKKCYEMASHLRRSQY
UniProt P21333: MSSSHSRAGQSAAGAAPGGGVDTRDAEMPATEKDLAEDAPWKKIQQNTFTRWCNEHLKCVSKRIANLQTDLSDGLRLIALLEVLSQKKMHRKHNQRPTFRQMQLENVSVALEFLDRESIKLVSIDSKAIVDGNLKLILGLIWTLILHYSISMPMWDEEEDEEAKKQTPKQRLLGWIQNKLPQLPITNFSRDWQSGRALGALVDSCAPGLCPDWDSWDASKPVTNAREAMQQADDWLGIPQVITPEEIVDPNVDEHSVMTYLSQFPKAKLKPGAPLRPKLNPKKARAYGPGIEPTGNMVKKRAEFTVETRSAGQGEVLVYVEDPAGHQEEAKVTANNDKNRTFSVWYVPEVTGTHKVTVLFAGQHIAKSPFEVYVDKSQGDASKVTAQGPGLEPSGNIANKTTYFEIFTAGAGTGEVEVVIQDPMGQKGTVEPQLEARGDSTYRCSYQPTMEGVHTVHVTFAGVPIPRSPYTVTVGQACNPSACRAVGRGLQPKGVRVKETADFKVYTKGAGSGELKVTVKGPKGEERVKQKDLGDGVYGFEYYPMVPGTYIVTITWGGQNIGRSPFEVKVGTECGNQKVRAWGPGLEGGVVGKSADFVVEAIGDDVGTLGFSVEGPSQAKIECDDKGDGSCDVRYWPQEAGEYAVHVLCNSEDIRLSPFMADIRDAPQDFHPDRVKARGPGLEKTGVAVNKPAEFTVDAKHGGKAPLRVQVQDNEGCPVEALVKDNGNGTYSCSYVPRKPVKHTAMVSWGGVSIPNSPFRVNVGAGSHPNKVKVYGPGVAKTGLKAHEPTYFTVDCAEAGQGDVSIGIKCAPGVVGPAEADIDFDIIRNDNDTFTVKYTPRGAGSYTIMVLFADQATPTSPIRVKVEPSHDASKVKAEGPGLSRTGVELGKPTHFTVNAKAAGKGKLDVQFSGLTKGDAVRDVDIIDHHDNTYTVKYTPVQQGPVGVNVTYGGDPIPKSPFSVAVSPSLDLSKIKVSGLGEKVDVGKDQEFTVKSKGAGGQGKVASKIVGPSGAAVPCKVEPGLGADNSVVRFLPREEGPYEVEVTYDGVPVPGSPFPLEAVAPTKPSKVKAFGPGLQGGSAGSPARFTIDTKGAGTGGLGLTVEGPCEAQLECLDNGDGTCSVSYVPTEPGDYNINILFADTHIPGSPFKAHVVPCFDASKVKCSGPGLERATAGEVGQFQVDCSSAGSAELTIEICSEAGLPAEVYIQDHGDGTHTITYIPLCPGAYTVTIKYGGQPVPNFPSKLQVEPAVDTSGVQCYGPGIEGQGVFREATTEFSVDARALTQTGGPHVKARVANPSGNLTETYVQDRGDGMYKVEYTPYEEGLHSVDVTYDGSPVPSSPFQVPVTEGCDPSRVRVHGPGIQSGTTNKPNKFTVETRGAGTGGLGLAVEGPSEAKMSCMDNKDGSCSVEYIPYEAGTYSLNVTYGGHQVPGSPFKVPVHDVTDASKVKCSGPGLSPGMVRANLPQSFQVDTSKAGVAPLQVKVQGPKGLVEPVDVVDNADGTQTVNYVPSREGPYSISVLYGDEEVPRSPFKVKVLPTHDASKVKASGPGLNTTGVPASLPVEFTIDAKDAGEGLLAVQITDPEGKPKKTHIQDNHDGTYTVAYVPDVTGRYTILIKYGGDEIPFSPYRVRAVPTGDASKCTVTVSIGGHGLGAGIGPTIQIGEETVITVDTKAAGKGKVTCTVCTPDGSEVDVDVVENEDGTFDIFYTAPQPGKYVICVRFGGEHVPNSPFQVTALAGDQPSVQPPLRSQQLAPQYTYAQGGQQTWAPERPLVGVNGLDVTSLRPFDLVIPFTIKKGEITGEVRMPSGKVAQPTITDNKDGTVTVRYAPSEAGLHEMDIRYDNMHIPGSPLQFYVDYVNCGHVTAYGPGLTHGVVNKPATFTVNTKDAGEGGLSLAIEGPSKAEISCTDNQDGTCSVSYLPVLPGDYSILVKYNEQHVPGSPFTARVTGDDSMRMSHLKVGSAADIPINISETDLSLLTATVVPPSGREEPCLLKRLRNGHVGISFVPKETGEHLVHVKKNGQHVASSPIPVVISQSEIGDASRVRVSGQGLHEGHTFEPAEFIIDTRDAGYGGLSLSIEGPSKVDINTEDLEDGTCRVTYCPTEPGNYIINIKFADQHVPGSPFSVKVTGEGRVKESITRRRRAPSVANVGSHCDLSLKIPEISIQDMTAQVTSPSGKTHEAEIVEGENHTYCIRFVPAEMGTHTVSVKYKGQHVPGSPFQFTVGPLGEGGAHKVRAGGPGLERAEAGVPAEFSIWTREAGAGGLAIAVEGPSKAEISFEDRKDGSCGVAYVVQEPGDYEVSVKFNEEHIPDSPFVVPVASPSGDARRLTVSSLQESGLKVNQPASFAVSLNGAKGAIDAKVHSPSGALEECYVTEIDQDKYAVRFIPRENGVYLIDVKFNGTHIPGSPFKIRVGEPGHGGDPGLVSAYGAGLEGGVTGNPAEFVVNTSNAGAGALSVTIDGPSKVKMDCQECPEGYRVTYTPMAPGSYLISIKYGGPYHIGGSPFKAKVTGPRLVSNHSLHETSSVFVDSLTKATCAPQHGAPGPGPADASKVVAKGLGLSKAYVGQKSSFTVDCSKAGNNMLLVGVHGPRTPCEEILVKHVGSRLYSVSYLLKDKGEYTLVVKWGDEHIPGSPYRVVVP
UniProt Q02413, residues 50-1049: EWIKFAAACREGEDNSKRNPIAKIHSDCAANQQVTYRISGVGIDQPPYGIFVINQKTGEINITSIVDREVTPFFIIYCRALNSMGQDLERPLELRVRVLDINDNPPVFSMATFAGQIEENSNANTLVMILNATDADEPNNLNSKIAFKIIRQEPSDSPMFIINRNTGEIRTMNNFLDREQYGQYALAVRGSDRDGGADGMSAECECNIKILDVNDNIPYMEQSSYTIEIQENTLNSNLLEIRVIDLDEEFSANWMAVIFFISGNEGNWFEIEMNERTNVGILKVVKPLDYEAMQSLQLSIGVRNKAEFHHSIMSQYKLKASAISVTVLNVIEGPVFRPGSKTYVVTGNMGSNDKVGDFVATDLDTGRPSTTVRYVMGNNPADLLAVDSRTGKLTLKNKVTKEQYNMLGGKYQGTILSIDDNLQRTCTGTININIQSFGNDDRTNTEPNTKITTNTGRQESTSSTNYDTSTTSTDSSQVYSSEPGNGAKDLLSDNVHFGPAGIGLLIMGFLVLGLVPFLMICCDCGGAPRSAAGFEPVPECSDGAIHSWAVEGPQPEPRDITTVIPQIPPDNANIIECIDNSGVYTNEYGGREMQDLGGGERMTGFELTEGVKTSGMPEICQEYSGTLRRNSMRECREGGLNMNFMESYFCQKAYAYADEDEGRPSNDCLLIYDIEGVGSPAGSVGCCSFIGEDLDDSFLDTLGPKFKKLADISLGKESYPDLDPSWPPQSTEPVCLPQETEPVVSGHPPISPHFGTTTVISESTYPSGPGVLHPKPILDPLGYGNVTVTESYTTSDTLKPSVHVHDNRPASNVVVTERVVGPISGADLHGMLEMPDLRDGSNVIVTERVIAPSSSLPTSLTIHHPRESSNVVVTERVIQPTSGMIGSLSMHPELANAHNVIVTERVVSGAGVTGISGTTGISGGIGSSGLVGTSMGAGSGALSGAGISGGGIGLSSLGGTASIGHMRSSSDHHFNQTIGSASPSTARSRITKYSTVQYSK
UniProt P0DMV8: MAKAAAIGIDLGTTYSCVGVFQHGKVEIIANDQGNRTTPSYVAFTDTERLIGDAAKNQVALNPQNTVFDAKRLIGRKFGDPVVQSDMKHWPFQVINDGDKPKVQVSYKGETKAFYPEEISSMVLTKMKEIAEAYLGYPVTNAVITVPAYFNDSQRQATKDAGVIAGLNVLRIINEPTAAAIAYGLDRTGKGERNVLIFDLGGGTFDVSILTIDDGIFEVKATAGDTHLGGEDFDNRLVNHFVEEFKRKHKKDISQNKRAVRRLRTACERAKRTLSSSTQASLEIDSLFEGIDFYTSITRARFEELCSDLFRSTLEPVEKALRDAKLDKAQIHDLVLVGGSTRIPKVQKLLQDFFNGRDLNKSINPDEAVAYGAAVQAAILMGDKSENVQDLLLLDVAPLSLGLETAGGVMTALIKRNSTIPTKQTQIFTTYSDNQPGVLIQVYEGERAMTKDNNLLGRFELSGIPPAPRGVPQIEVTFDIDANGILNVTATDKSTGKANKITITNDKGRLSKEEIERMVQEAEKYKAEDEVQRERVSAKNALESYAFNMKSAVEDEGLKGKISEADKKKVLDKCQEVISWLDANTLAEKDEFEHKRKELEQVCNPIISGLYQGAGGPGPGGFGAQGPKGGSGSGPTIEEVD
UniProt P10809, residues 27-573: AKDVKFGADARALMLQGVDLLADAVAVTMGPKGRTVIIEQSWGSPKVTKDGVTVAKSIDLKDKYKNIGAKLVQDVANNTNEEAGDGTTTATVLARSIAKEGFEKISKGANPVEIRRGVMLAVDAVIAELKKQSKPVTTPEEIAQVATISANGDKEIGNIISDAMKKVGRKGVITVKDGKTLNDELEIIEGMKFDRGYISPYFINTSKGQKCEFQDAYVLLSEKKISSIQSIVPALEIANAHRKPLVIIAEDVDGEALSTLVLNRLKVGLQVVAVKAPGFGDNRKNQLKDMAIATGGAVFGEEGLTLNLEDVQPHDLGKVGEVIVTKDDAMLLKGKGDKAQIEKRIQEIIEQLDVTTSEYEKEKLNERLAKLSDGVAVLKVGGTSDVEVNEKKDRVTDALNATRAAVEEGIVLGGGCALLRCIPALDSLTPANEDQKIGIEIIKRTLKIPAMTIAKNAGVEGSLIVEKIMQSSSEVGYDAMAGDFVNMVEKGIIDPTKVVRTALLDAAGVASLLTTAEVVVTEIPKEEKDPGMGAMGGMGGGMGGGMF
UniProt P50990: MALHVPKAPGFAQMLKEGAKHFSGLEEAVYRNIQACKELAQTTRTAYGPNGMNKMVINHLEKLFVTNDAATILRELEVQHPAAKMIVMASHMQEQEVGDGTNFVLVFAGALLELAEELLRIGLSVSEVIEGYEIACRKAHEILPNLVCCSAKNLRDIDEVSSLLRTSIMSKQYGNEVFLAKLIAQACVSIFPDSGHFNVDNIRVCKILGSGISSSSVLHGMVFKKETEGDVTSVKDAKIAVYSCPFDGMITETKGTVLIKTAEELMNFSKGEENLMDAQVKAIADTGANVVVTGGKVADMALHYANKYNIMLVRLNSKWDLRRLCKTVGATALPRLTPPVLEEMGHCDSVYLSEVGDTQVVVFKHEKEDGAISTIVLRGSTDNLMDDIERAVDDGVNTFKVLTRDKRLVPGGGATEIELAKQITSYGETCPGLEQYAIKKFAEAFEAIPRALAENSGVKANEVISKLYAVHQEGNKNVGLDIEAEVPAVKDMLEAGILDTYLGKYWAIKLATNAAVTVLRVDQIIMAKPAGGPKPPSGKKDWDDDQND
UniProt P08238: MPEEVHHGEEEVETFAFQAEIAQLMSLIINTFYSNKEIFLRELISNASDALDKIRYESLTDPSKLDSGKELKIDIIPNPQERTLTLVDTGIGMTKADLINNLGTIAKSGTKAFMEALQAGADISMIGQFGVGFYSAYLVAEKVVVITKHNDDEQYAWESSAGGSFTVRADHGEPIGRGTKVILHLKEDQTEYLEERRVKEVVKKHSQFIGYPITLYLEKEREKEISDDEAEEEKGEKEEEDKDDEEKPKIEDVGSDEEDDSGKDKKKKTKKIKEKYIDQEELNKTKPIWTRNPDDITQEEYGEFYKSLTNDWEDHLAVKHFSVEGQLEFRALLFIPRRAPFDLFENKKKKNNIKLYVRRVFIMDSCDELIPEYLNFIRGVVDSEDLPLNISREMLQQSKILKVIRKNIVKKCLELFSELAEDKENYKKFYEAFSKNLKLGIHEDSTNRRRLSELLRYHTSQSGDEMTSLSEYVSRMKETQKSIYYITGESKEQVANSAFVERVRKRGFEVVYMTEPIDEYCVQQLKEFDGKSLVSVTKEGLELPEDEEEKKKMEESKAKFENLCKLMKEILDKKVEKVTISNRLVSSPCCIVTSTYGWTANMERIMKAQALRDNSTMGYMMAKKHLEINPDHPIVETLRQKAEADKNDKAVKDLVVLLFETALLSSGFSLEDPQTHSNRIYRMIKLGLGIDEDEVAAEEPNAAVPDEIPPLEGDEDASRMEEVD
UniProt Q99497: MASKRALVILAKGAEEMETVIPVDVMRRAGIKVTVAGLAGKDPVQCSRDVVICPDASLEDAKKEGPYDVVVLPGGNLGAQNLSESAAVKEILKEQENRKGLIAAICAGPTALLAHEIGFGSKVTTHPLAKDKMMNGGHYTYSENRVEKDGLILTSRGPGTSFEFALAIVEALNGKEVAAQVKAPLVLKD

T1: Flag-PUS7 (pseudouridine synthase 7, wild type, overexpressed from lentivirus LV-PUS7) (UniProt Q96PZ0)
T1 sequence: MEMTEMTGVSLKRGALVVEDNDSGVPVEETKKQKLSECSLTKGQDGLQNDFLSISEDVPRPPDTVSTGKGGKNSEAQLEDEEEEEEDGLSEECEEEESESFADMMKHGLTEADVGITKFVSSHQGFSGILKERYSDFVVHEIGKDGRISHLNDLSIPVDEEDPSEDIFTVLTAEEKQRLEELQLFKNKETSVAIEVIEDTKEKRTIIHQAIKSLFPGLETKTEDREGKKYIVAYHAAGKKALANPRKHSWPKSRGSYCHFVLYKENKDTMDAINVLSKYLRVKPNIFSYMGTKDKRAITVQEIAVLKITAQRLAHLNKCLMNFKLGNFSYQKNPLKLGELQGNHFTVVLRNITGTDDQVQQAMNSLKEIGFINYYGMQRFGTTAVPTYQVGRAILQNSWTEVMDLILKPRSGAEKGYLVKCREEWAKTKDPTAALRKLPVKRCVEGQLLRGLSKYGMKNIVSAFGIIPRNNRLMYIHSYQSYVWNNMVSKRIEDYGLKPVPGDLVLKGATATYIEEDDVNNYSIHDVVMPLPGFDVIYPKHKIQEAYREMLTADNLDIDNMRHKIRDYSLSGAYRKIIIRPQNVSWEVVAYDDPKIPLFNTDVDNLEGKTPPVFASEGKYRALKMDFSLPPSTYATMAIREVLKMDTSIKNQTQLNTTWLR


Target: T1, Flag-PUS7 (pseudouridine synthase 7, wild type, overexpressed from lentivirus LV-PUS7)
Experiment: affinity purification with mass spectrometry; DLD1 cells transfected with Flag-PUS7, immunoprecipitated with anti-Flag magnetic beads, LC-MS/MS; IgG control

Row | binding | Molecule
1 | binds | PFN1 (from UniProt P07737 1-140)
2 | binds | CCT5 (from UniProt P48643 1-541)
3 | binds | FLNA (from UniProt P21333 1-2647)
4 | binds | DSG1 (from UniProt Q02413 50-1049)
5 | binds | CCT2 (protein, UniProt P78371 1-535) MASLSLAPVNIFKAGADEERAETARLTSFIGAIAIGDLVKSTLGPKGMDKILLSSGRDASLMVTNDGATILKNIGVDNPAAKVLVDMSRVQDDEVGDGTTSVTVLAAELLREAESLIAKKIHPQTIIAGWREATKAAREALLSSAVDHGSDEVKFRQDLMNIAGTTLSSKLLTHHKDHFTKLAVEAVLRLKGSGNLEAIHIIKKLGGSLADSYLDEGFLLDKKIGVNQPKRIENAKILIANTGMDTDKIKIFGSRVRVDSTAKVAEIEHAEKEKMKEKVERILKHGINCFINRQLIYNYPEQLFGAAGVMAIEHADFAGVERLALVTGGEIASTFDHPELVKLGSCKLIEEVMIGEDKLIHFSGVALGEACTIVLRGATQQILDEAERSLHDALCVLAQTVKDSRTVYGGGCSEMLMAHAVTQLANRTPGKEAVAMESYAKALRMLPTIIADNAGYDSADLVAQLRAAHSEGNTTAGLDMREGTIGDMAILGITESFQVKRQVLLSAAEAAEVILRVDNIIKAAPRKRVPDHHPC

The next lines start with the molecule.

Row | Molecule | binding
6 | CALR (from UniProt P27797 18-417) | binds
7 | HSPA1A (from UniProt P0DMV8 1-641) | binds
8 | HSPD1 (from UniProt P10809 27-573) | binds
9 | CCT8 (from UniProt P50990 1-548) | binds
10 | HSP90AB1 (from UniProt P08238 1-724) | binds
11 | PARK7 (from UniProt Q99497 1-189) | binds
12 | HSP90AA1 (from UniProt P07900 1-732) | binds

These are yes or no findings as the source states them, for the method shown. Binding seen in cells or lysates may run through a third protein. Here binding means that the protein was enriched with, or labelled near, the bait; the list need not be complete. Tags and fused reporters may be left off the sequences shown.
